# No constants are given. Whether binding was seen depends on the method and setting. In cells and extracts the contact can be indirect. Binding calls can cover weak binding; strength is not graded here. For part of these data: Where a sequence is shown, tags or fusion partners need not be part of it.
# What was measured:
# [1] = target: T1, protrudin (co-immunoprecipitation of Supplementary Fig. 7c) (not stated (human or mouse cDNA cloned)) (UniProt Q5T4F4); assay: co-IP; PDZD8(WT), PDZD8(ΔTM) or TM-domain chimeras with protrudin (Supplementary Fig. 7c); cells and tags not given
# T1 sequence: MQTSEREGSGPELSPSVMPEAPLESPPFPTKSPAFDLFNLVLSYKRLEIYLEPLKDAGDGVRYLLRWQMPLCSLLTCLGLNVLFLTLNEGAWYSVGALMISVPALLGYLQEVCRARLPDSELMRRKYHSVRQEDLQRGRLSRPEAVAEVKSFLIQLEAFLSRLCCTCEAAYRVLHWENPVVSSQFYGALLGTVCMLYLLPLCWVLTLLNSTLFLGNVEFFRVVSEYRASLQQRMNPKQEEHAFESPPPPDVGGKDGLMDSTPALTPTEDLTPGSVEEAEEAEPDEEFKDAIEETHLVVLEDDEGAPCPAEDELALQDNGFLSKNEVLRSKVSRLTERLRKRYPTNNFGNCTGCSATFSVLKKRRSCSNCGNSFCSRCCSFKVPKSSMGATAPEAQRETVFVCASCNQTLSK
# [2] = target: T2, FLAG-protrudin (not stated (human or mouse cDNA cloned)) (UniProt Q5T4F4); assay: co-IP; epitope-tagged proteins co-expressed in HEK293T cells; IP with primary antibodies and protein G-Sepharose, 1 h at 4 °C, three washes with lysis buffer; immunoblot
# T2 sequence: T1 sequence
binding [1],binding [2],Substance
no binding,–,PDZD8(ΔTM) (mouse) (domain or fragment)
–,binds,Myc epitope-tagged PDZD8 (mouse)
binds,–,PDZD8(WT) (mouse)

# Reference: PMC7486383, “Protrudin and PDZD8 contribute to neuronal integrity by promoting lipid extraction required for endosome maturation” (Nature Communications, 2020)
